## Results of single-concentration screens

Results are given as percent effect. The controls that fix the scale are not given in the record; negative values are as filed. This is an unselected part of the compounds tested. Two or more numbers in one place are separate tests of the same structure; such repeats can differ widely.

A: 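Whole-parasite assay of Trypanosoma brucei over 72 hours; the read-out is not stated. Tested at 30 µM. Higher reads as stronger inhibition (inferred: compounds with an IC50 in retests scored well above the rest). Values scatter widely below zero; nearly all retest evidence comes from the higher of the two concentrations used. Of about 64,000 compounds tested this way, about 940 (1.5%) reached 50% or more in at least one test.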
B: 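Cell assay of Leishmania donovani living inside macrophages; the read-out is not stated. Tested at 30 µM. The record gives no direction; compounds that gave an IC50 in retests scored well above the rest, so higher reads as stronger inhibition. Of about 69,000 compounds tested this way, about 1,000 (1.5%) reached 50% or more in at least one test.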

{"structure": "O=C(O)C(F)(F)F.[H][C@@]12CCCO[C@]1([H])[C@H](NC(=O)c1cscn1)CN2", "A": -13.3, "B": 4.147}
{"structure": "O=C(O)C(F)(F)F.O=C(O)C(F)(F)F.[H][C@@]12CCN(C)[C@@]1([H])CCN2Cc1cc(C)c(C)o1", "A": -7.269, "B": 7.937}
{"structure": "CCCN(Cc1nccn1C)C(=O)C(CC)Nc1cccc(OC)c1", "stereo": "stereo unspecified", "A": -6.348, "B": 32.51}
{"structure": "COc1ccc(S(=O)(=O)N2CCOC(Cn3ccnc3)C2)cc1.Cc1ccc(S(=O)(=O)O)cc1", "stereo": "stereo unspecified", "A": -20.84, "B": 19.85}
{"structure": "NC(=O)c1cnn2c1NCC(CNCCc1ccco1)C2", "stereo": "stereo unspecified", "A": -24.14, "B": -20.85}
{"structure": "CC(C)c1cc(CN(C)C(=O)CN2CCCCC2=O)no1", "A": -39.93, "B": 17}
{"structure": "Cc1nn(C)cc1CN1CCCC(n2c(=O)oc3ccccc32)C1", "stereo": "stereo unspecified", "A": -13.71, "B": 20.95}
{"structure": "COCc1cc(NCc2cccnc2Oc2ccc(C)nc2)ncn1", "A": -17, "B": 28.61}
{"structure": "CN(C)c1ncc(CNS(=O)(=O)c2cc(F)ccc2Cl)n1C", "A": -16.99, "B": -8.119}
{"structure": "CN(C)C(=O)N1CC(C(=O)NCC2CC2)C2(CCOCC2)C1", "stereo": "stereo unspecified", "A": -32.99, "B": 5.524}
{"structure": "Cc1nc(O)c2nnn(C[C@H]3CCCN3C(=O)c3ccccc3C)c2n1", "A": -4.415, "B": "-0.9754 & 23.04"}
{"structure": "O=C(NCCc1ccn(-c2ccc(F)cc2)n1)C1CCCOC1", "stereo": "stereo unspecified", "A": 101.3, "B": 11.22}
{"structure": "Cc1nc(NCCSc2nnc(C)s2)c2cccnc2n1", "A": -17.3, "B": 30.31}
{"structure": "CC(C)N1CC(C(=O)N2CCc3c(nc(CC4CC4)[nH]c3=O)C2)CC1=O", "stereo": "stereo unspecified", "A": -42.49, "B": 17.52}
{"structure": "CCOCC1CN(C(=O)C2CCOCC2)Cc2cnn(C)c21", "stereo": "stereo unspecified", "A": -12.49, "B": -4.533}
{"structure": "[H][C@@]12C[C@H](C(=O)N3CCCC3)[C@@]([H])(CN(C(=O)NCc3ccccc3C)C1)O2", "A": -10.15, "B": -26.9}
{"structure": "FC(F)(F)C1CN(Cc2cccc(OCc3ccccn3)c2)CCO1", "stereo": "stereo unspecified", "A": -33.52, "B": 12.26}
{"structure": "CCCc1nc2c(c(C)c(C)n2Cc2ccncc2)c(N)c1CC", "A": 11.66, "B": 13.89}
{"structure": "CC(=O)N1CCCn2nc(CNS(=O)(=O)N(C)C(C)C)cc2C1", "A": 6.069, "B": -51.75}
{"structure": "CC(NC(=O)N1CCSC(C)(C)C1)c1noc(-c2ccccc2)n1", "stereo": "stereo unspecified", "A": 6.816, "B": 4.605}
{"structure": "Fc1ccc(CN2CCCn3cnc(COCC4CC4)c3C2)cc1.O=C(O)C(F)(F)F", "A": 24.3, "B": -1.63}
{"structure": "Cc1ccccc1Cc1nc(CSc2nnc(N)n2C2CC2)no1", "A": 69.45, "B": -3.187}
{"structure": "CCOC(=O)C1CCN(C(=O)c2cnn(-c3ccccc3F)c2N)CC1", "A": -0.6328, "B": 39.69}
{"structure": "CC(C)CN1CCC(C(=O)NCCNC(=O)c2ccco2)CC1", "A": -47.29, "B": 13.62}
{"structure": "Cc1cnn(CC2CCCN2C(=O)c2cc3c(F)cccc3[nH]2)c1", "stereo": "stereo unspecified", "A": 26.33, "B": 3.597}
{"structure": "COc1ccc(-n2nnc(C(N)=O)n2)cc1", "A": 6.812, "B": 8.594}
{"structure": "Cc1nc(N2CCN(C)CC2)ncc1C(=O)N1CCC(O)(CO)CC1", "A": 11.48, "B": 11.68}
{"structure": "Cc1ccccc1N1CC2(CCCCN2CC2CC2)CC1=O.O=C(O)C(F)(F)F", "stereo": "stereo unspecified", "B": 18.53}
{"structure": "CCCc1nc(CN2CCCCC2Cn2cncn2)cs1", "stereo": "stereo unspecified", "A": 101.4, "B": 19.14}
{"structure": "CC(C)n1cc(CN2CCCN(C(=O)C3(C)CCOCC3)CC2)cn1", "A": -67.83, "B": 12.6}
{"structure": "CN(CCCO)Cc1cc(Cl)ccc1OCC(O)CN1CCCCCC1", "stereo": "stereo unspecified", "A": -40.07, "B": 27.1}
{"structure": "CC(c1cccnc1)N1CCN(CCCC#N)CC1", "stereo": "stereo unspecified", "A": -8.57, "B": 12.06}
{"structure": "COc1cc(F)c(NC(=O)N(C)Cc2cc(C)on2)cc1F", "A": 2.402, "B": 1.807}
{"structure": "CCS(=O)(=O)N1CCCN(CCCOC)CC1", "A": -50.66, "B": 30.34}
{"structure": "CNc1ccc(C(=O)N(C)Cc2ccc3ccccc3n2)cn1", "A": 5.672, "B": 6.468}
{"structure": "O=C(NCCOc1ncc(Cl)cc1Cl)c1ccoc1", "A": -56.05, "B": 11.73}

From ChEMBL document CHEMBL3988442, “University of Dundee, Small-Polar-MMV Screening Library” (2021).